# Reference: the supplement of paper PMC11006884
# Chains of the proteins cited; added tags and fusions are not shown. Lines headed by an entry give the natural chain unless they say otherwise; changes in a name come on top.
# UniProt P52701: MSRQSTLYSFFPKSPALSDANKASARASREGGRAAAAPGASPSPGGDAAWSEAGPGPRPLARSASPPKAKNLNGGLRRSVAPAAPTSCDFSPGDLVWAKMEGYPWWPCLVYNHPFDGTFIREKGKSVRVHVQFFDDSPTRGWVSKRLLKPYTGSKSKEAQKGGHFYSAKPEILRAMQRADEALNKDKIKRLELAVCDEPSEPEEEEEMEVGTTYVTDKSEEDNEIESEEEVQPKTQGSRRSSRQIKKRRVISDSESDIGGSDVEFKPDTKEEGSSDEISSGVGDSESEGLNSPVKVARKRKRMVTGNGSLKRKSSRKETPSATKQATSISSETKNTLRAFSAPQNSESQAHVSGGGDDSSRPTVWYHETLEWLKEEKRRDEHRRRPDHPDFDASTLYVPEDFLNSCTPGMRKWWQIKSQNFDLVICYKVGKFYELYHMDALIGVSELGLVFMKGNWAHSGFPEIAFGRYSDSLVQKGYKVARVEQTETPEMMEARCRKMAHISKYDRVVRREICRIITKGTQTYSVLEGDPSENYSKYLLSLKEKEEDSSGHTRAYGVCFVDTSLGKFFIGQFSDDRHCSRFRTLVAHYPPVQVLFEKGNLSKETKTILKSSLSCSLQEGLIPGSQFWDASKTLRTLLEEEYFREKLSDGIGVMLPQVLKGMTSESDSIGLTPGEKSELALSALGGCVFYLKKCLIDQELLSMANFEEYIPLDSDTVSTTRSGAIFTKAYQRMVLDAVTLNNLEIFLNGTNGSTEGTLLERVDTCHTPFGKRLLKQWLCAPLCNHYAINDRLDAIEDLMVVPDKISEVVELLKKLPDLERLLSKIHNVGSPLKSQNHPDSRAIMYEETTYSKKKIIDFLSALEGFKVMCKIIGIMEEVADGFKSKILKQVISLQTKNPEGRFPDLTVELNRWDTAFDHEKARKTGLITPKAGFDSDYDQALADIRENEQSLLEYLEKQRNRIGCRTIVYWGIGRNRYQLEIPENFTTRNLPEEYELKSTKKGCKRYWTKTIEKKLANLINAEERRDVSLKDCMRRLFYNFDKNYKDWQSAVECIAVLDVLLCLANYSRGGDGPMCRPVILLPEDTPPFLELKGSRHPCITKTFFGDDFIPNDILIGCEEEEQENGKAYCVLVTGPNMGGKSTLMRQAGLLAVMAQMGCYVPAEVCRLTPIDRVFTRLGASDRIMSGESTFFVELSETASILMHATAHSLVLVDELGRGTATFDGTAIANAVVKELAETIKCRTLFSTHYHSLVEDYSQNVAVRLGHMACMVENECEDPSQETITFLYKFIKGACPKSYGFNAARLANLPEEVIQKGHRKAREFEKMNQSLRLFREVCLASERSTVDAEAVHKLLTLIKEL
# UniProt P51957: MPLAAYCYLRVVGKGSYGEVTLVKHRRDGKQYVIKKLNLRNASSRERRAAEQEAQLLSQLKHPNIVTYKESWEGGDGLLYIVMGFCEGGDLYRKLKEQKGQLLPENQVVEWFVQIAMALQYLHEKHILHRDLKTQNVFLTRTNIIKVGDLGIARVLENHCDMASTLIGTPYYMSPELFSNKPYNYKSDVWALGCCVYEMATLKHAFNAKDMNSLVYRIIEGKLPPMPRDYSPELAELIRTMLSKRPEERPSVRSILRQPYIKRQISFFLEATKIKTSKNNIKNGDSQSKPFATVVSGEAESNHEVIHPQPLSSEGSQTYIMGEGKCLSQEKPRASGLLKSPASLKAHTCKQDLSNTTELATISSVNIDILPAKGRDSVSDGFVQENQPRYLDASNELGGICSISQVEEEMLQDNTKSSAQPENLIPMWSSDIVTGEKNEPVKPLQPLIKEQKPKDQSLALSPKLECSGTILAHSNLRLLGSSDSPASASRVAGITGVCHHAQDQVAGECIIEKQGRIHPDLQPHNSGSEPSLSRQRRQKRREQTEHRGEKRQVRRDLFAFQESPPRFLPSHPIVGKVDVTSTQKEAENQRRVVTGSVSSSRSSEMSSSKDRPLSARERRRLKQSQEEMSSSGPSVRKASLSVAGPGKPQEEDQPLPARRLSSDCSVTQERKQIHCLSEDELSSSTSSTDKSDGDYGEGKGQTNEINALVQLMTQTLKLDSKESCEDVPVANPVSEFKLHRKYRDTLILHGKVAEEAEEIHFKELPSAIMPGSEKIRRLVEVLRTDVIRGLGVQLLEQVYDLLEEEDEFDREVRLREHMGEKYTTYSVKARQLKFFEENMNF
# UniProt P51812, whole entry, looked up: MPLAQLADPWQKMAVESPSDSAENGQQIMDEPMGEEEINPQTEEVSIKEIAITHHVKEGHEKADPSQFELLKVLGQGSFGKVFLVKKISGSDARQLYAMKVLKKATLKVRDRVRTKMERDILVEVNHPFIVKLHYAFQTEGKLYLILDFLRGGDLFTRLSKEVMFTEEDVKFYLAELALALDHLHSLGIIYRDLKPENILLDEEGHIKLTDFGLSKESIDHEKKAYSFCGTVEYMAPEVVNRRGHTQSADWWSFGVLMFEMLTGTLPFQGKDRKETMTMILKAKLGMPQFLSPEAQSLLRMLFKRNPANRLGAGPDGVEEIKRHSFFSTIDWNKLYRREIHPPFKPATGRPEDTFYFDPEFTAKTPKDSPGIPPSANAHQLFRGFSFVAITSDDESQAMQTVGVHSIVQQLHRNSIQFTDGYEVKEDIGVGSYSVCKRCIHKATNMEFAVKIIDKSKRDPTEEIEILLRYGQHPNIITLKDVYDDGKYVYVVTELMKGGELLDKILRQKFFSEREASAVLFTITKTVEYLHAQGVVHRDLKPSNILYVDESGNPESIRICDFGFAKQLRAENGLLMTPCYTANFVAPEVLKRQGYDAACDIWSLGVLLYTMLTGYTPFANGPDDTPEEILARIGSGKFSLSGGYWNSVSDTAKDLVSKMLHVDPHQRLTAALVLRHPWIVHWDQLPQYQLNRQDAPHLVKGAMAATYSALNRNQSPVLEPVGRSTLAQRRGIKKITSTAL
# UniProt P53041: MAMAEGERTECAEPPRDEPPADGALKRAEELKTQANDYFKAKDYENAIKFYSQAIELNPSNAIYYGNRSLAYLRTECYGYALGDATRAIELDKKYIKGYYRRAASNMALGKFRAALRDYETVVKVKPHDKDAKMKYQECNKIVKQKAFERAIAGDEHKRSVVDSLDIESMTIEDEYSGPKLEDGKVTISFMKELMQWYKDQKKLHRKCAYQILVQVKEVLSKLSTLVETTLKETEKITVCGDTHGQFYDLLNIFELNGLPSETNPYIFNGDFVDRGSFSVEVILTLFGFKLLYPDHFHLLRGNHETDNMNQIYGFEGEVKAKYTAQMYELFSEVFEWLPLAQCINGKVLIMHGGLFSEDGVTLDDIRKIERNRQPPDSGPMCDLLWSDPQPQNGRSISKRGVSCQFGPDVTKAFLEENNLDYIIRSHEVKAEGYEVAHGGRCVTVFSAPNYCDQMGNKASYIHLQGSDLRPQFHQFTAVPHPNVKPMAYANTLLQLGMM
# UniProt P55209: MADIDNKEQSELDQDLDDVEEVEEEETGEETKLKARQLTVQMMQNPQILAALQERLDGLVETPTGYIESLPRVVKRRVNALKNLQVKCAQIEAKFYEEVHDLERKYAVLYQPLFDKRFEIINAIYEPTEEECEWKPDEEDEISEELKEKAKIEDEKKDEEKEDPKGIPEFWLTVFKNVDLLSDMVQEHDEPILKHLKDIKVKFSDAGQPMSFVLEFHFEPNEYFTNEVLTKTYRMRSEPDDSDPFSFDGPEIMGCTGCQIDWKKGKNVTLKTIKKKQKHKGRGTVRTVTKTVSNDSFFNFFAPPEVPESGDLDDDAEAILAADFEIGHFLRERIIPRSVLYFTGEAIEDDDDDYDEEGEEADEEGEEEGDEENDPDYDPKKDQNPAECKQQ
# UniProt P61077: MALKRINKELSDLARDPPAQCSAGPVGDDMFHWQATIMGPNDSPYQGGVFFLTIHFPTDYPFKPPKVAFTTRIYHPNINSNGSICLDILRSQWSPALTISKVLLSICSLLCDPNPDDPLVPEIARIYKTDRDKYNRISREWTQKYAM
# UniProt P60953, whole entry, looked up: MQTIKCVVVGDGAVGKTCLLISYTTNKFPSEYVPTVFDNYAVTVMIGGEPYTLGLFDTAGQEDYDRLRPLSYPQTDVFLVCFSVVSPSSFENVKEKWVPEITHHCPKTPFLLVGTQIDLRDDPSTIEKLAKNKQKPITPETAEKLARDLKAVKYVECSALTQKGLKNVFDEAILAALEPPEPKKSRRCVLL
# UniProt P53611: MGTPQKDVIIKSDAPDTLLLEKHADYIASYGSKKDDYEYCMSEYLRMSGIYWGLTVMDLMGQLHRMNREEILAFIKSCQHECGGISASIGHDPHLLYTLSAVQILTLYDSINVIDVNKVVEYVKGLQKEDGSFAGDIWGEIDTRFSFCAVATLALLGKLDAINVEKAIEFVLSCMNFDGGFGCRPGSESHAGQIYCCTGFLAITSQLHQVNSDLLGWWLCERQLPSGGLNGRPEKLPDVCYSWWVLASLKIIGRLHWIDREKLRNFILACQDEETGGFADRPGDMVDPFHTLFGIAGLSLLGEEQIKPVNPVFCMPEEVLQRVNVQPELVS
# UniProt P53396: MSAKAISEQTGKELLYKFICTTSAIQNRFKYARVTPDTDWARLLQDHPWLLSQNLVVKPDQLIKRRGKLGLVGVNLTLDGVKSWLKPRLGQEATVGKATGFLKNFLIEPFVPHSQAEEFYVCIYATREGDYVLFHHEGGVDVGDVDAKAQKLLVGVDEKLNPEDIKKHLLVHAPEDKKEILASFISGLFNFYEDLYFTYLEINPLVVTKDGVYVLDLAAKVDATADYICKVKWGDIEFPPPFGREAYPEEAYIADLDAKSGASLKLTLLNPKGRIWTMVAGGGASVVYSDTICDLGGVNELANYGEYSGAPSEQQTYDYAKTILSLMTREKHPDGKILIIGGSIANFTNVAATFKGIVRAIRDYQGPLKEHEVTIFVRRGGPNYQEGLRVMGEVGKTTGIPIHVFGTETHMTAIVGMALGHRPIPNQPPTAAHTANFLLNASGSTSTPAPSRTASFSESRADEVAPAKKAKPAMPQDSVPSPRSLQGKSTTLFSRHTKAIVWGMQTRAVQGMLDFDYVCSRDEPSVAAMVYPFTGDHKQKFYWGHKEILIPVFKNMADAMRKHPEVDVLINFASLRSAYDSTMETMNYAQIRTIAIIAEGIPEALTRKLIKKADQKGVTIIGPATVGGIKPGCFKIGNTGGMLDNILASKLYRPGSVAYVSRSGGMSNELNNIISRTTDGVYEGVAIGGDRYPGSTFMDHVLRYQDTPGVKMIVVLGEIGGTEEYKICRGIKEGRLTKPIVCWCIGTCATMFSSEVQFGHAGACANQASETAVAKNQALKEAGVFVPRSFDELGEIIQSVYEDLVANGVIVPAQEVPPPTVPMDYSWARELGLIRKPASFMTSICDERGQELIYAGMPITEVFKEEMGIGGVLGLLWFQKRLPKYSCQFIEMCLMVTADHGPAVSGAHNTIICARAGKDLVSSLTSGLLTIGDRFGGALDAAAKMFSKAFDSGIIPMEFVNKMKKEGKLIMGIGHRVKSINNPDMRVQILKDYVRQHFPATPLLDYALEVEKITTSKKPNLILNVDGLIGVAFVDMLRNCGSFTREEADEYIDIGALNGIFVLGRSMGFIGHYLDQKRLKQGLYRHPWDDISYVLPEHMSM
# UniProt P56277: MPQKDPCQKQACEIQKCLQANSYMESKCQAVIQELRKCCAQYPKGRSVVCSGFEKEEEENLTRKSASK
# UniProt P56192: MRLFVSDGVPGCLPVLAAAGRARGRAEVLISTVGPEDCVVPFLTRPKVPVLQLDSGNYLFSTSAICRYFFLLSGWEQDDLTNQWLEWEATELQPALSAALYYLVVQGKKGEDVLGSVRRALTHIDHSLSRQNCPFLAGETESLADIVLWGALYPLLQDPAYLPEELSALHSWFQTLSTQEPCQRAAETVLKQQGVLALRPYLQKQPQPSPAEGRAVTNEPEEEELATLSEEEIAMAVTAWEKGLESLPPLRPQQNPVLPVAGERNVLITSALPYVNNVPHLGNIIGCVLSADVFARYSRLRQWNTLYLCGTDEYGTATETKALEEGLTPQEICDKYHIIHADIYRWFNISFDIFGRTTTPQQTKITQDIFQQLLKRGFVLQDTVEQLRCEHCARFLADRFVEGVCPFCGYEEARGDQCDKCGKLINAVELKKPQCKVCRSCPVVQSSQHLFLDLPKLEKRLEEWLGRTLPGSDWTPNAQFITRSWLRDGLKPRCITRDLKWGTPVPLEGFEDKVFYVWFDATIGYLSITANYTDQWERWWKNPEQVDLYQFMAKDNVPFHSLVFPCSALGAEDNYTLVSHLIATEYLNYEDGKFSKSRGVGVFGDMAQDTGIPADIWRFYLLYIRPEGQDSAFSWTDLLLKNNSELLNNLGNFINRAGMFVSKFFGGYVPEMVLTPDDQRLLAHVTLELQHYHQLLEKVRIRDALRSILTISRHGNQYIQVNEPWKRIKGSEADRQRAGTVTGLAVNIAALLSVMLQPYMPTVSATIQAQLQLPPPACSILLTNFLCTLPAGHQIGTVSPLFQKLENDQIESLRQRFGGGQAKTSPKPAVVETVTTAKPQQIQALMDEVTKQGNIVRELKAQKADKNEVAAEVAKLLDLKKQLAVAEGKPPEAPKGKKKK
# Only a part is listed here, and it is no random draw.
# Compound: COC(=O)C#Cc1ccccc1 [methyl 3-phenylpropiolate]
# Test: log2 ratio of iodoacetamide-alkyne labeling of the cysteine site, DMSO over compound (competition); higher = stronger covalent engagement of the cysteine by the compound, active = 1 or more
# Settings: 500 µM; treatment time 1 h; system: HEK293T cell lysate
# In short: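 HEK293T lysate at 2 mg/mL was treated with vehicle or electrophile (500 µM) for 1 h at ambient temperature, then labelled with iodoacetamide alkyne (1 h), clicked to sCIP-TMT reagents, pooled, digested with trypsin overnight at 37 °C, enriched on streptavidin and eluted with acid. Peptides were analysed by Orbitrap Eclipse LC-MS/MS with FAIMS and quantified in FragPipe, using duplicate channels and three replicates, with cysteines quantified in only one replicate excluded. The log2 competition ratio for each cysteine is the mean control-channel reporter intensity divided by the mean compound-channel reporter intensity.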
row,Target,log2 ratio of iodoacetamide-alkyne labeling
1,GEMIN4 C382 (UniProt P57678),inactive: 0.0965
2,UniProt P60709_C17,inactive: 0.0458
3,NUP98 C1590 (UniProt P52948),inactive: 0.601
4,CSE1L C939 (UniProt P55060),inactive: 0.518
5,HNRNPH2 C290 (UniProt P55795),inactive: -0.0525
6,MSH6 C1165 (UniProt P52701),inactive: -0.0115
7,NEK4 C401 (UniProt P51957),inactive: 0.279
8,UniProt P60842_C66,inactive: -0.0149
9,CTSC C258 (UniProt P53634),inactive: -0.0449
10,DSTN C23 (UniProt P60981),inactive: 0.188
11,MSH6 C615 (UniProt P52701),inactive: 0.105
12,PEX3 C283 (UniProt P56589),inactive: 0.0605
13,UniProt P60891_C41,inactive: -0.0365
14,UniProt P55196_C1764,inactive: 0.821
15,UniProt P51812_C579,inactive: 0.153
16,PPP5C C452 (UniProt P53041),inactive: 0.0827
17,RARS C369 (UniProt P54136),inactive: 0.254
18,UniProt P60709_C272,inactive: -0.088
19,DSTN C135 (UniProt P60981),inactive: 0.0319

# Reprinted from above for reference:
row,Target,log2 ratio of iodoacetamide-alkyne labeling
14,UniProt P55196_C1764,inactive: 0.821
15,UniProt P51812_C579,inactive: 0.153

# Next part

row,Target,log2 ratio of iodoacetamide-alkyne labeling
1,NAP1L1 C132 (UniProt P55209),inactive: 0.152
2,UniProt P61077_C85,inactive: 0.317
3,EIF3B C420 (UniProt P55884),inactive: -0.172
4,HK2 C158 (UniProt P52789),inactive: 0.246
5,CTBP2 C318 (UniProt P56545),inactive: 0.0531
6,TPI1 C104 (UniProt P60174),inactive: 0.0793
7,LAMB2 C47 (UniProt P55268),inactive: 0.575
8,NUP98 C1312 (UniProt P52948),inactive: 0.426
9,UniProt P60953_C157,inactive: -0.0113
10,PEX3 C65 (UniProt P56589),inactive: 0.385
11,PLK1 C372 (UniProt P53350),inactive: 0.506
12,CASP6 C68 (UniProt P55212),inactive: 0.0483
13,RABGGTB C40 (UniProt P53611),inactive: 0.157
14,ACLY C633 (UniProt P53396),inactive: 0.16
15,HSD17B4 C373 (UniProt P51659),inactive: 0.219
16,CMC4 C12 (UniProt P56277),active: 1.14
17,MARS C566 (UniProt P56192),inactive: 0.0165
18,UniProt P60228_C298,inactive: -0.641
